Test results as given in patent US20230183347A1.
Residue numbers refer to the chain shown, from its start. Results are given in words; binding and its absence hold for the method and conditions named. Some results given as binding are weak or reduced against the parent protein; the word gives no strength. One block for each binder: values may come before it.

Protein sequences, listed by entry. Tags and fused reporters are not part of them. Lines headed by an entry give the natural chain unless they say otherwise; changes in a name come on top.
UniProt Q15116: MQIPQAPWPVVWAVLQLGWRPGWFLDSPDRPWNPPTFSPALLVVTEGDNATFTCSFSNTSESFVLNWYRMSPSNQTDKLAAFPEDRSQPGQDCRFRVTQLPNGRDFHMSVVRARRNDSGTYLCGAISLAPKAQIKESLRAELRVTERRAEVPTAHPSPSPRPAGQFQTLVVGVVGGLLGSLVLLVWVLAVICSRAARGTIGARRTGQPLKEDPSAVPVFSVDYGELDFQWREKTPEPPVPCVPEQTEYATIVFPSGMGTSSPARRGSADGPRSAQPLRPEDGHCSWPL

Molecular target: human PD-1 (form used in the binding test not stated) (human) (UniProt Q15116)
Assay: domain mapping; method not described (definition in paragraph 30)

binding: binds
B1: HM266, anti-human PD-1 mouse monoclonal antibody (mouse IgG1, kappa) (antibody, V domains shown)
VH: QVQLQQSGPELVKPGASVKMSCKASGYTFTSYYIQWVKQRPGQGLEWIGWIYPGDGSSKYNEKFKGKTTLTADKSSSTAYMLLSSLTSEDSGIYFCASYYGSSFDYWGQGTTLTVSS
VL: DIQMTQTTSSLSASLGDRVTISCRASQDISNYLNWYQQKPDGTVKFLIYYSSRLHSGVPSRFSGSGSGTDYSLTISNLEQEDIATYFCQQGSTLPFTFGGGTKLEIKR

binding: binds
B2: HM647, anti-human PD-1 mouse monoclonal antibody (mouse IgG1, kappa) (antibody, V domains shown)
VH: EVLLQQSGPELVKPGASVKITCKASGYTFTDYNMDWVKQSHGKSLEWIGDIDPNNGGTVYNQKFKDKASLTVDKSSSTGYMELRSLTSEDTAVYYCARWRSAMDYWGQGTSVTVSS
VL: B1 VL with T7P, F46L, Y49S, S51T, E81V, G91Y, F96W, T102S
